{"sequences": {"note": "Protein sequences, listed by entry. Tags and fused reporters are not part of them.", "UniProt Q00610": "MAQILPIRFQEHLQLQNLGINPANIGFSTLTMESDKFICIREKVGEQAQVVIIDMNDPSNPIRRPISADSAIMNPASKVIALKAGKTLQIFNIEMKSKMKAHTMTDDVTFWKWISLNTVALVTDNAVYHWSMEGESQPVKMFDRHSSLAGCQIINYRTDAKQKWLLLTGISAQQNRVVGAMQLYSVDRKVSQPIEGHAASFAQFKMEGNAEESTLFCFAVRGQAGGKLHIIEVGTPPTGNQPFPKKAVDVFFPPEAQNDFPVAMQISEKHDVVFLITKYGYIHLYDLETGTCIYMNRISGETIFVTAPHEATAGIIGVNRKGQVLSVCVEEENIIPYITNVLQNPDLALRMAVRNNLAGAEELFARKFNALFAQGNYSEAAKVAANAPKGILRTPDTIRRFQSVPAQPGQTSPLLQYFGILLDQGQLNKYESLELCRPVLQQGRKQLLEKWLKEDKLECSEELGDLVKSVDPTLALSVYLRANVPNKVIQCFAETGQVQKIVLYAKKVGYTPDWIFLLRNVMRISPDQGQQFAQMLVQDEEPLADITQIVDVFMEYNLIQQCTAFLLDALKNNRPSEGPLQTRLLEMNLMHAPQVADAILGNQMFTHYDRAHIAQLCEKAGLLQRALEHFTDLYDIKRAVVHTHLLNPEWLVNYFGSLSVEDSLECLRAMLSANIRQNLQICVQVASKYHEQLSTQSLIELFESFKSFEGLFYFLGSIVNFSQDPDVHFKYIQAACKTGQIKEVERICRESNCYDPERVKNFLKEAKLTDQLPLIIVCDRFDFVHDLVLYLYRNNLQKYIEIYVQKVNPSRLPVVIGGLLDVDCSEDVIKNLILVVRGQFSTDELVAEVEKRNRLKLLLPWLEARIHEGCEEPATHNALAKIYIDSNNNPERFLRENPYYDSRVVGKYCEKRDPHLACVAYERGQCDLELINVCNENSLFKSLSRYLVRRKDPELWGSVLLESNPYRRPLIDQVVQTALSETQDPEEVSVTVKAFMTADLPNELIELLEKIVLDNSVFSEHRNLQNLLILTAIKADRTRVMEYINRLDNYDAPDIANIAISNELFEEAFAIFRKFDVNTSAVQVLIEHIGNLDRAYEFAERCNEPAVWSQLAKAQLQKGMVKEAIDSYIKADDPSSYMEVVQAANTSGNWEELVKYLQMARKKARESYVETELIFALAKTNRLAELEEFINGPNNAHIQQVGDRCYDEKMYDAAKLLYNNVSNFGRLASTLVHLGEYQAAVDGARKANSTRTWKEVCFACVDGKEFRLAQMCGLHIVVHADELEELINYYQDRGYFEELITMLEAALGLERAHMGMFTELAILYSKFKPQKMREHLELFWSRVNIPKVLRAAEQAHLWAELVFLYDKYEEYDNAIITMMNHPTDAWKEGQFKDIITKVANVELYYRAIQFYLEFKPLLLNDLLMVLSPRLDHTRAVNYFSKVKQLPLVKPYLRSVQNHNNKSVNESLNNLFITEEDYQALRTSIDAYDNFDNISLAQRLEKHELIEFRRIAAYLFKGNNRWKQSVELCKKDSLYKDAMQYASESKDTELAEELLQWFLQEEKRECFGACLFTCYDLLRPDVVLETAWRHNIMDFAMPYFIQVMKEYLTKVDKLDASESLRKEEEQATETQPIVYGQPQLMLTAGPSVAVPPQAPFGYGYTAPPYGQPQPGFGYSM"}, "source": "paper PMC2661055", "about": "“The C-terminal sequence of the large hepatitis delta antigen is variable but retains the ability to bind clathrin” (Virology Journal, 2009)", "target": "T1, GST-LDIII_(C(198–210)) (GST fused to amino acids 198-210 of genotype III LDAg) (hepatitis delta virus genotype III (Peru-1 strain))", "T1 sequence": "FTPPPPGYYWVPG", "assay": "pull-down; GST or GST-LD_(C(198–210)) on Glutathione Sepharose 4B beads incubated with HuH-7 cell lysate for 16 h at 4°C; three washes with 0.05% Tween-20 in PBS; blot for CHC; mean of three experiments; only the target purified", "note": "These are yes or no findings as the source states them, for the method shown. Binding seen in cells or lysates may run through a third protein. Some entries that bind do so weakly or less than the wild type. Tags and fused reporters may be left off the sequences shown.", "data": [{"substance": "clathrin heavy chain (full-length, endogenous in HuH-7 cells) (from UniProt Q00610 1-1675)", "values": [{"measurement": "binding", "result": "binds"}]}]}
